# According to PubChem BioAssay AID493014 (National Center for Advancing Translational Sciences (NCATS), 2011):
# Out of some 340,000 compounds screened, about 170 (0.05%) were called active. This list was built around the results that the source calls inconclusive (neither active nor inactive); the mix of calls is not that of the screen. Calls come from the whole dose curve; as a rule, active = well fitted inhibition curve with a large enough effect in the signal ratio, with a control signal flat (not every such curve was filed as active); inconclusive = small, poorly fitted or top-dose-only effect, or effect the other way, or a change in a side signal; inactive = flat fitted curve, though single readings scatter; the % refers to the signal ratio. Potencies beside an inconclusive call are fits to weak or partial responses and may not hold up.
# Assay: qHTS Assay to Find Inhibitors of Chronic Active B-Cell Receptor Signaling;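 for activity change, negative = inhibition: plate controls were basal doxycycline-induced cells for no effect and cells given 10 µM MG132 for full effect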
# Conditions: ABC-DLBCL IkBa-CBG/CBR reporter, luminescence ratio (green luciferase fused to IkBa over red control in TMD8 lymphoma cells), 4 h; activity change, negative = inhibition: at 46.1 µM (top of the series)
# In short: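 Compounds up to 46 uM were incubated four hours with TMD8 cells whose green CBG68 luciferase is fused to IkappaBalpha; red CBR luminescence normalised the signal, and concentration-effect curves were fitted to fusion, red and ratio data.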
# Potency is the fitted concentration of half-maximal effect.
SMILES,"activity change, negative = inhibition",Potency
CCN1CCN(CCC(=O)Nc2ccc(F)c(F)c2)CC1,inactive,
CCc1ccc(NC(=O)CSc2nc3c(sc4ccccc43)c(=O)n2CCCOC(C)C)cc1,inactive,
COCCNC(=O)Cn1cc(C(=S)N2CCCCC2)c2ccccc21,inactive,
CCC(=O)Nc1ccc(NC(=O)c2ccccc2Cl)nc1,,"inconclusive: 23.1 µM [falling, partial curve]"
CCOc1ccc(CCNC(=O)COC(=O)C2CCN(S(=O)(=O)c3ccc(C)c(C)c3)CC2)cc1OCC,inconclusive: 3.67%,
Cc1ccnc(Nc2nc(-c3ccc(O)cc3)cs2)c1,,"inconclusive: 22.4 µM [falling, partial curve, poor fit]"
Cc1nn(-c2ccc(F)cc2)c2nc(N)c(C#N)c(-c3ccc(O)c(O)c3)c12,inactive,
O=C(Nc1nc2ccccc2[nH]1)c1ccc(OC(F)F)cc1,,"inconclusive: 35.5 µM [rising, partial curve]"
CCCn1c(NC(=O)c2cccc(C)c2C)nc2ccccc21,inconclusive: 3.94%,
Cc1ccc(C(=O)N/C(=C/c2cccs2)C(=O)NCCCn2ccnc2)cc1,inactive,
CCN(c1ccccc1)S(=O)(=O)c1ccc(Cl)c(NC(=O)CN2CCN(C)CC2)c1,inactive,
O=C(O)c1nc(-c2ccccc2)n(-c2cccc(C(F)(F)F)c2)n1,,"inconclusive: 0.794 µM [activator, full curve, poor fit]"
FC(F)(F)c1nc(SCc2ccc(Cl)cc2Cl)n[nH]1,inconclusive: 16.9%,
CC1Cc2cc(/C(O)=C3/C(=O)C(=O)N(Cc4cccnc4)C3c3cccc(O)c3)ccc2O1 (stereo unspecified),inconclusive: 0.874%,
CCc1ccc([C@@H]2CC=C(C(=O)O)[C@H](c3ccc(F)cc3)N2S(=O)(=O)c2ccc(C)cc2)cc1,inactive,
O=C(O)COc1ccc(/C=C/c2ccc3cccc([N+](=O)[O-])c3n2)cc1,,"inconclusive: 25.9 µM [falling, single point]"
CCOc1ccccc1N1CCN(C(=O)CNC(=O)c2ccccc2F)CC1,inconclusive: -0.689%,
O=C(COc1ccc(Cl)cc1)Nc1nnc(-c2ccco2)o1,inactive,
O=S(=O)(NC1CC1)c1ccc(S(=O)(=O)N(Cc2ccccn2)C2CC2)cc1,inconclusive: 0.154%,
COc1ccc(-c2nc3scc(CCNS(=O)(=O)c4ccc(NC(C)=O)cc4)n3n2)cc1,,"inconclusive: 11.2 µM [falling, partial curve, poor fit]"
Cc1ccc(OCC(=O)Nc2ccc(F)cc2)cc1C,,"inconclusive: 18.4 µM [falling, partial curve]"
O=Cc1ccccc1OCCOc1ccccc1C=O,,"inconclusive: 29.1 µM [falling, single point]"
Cc1c(/C(O)=C2/C(=O)C(=O)N(Cc3cccnc3)C2c2ccccn2)cnn1-c1ccccc1 (stereo unspecified),inconclusive: 12.8%,
Cc1cc(C(=O)NNC(=O)c2ccc(C)c([N+](=O)[O-])c2)c(C)o1,,"inconclusive: 6.51 µM [falling, partial curve]"
S=C(NCc1ccccc1)NCC1COc2ccccc2O1 (stereo unspecified),inactive,
CC(=O)Nc1ccc(S(=O)(=O)NNC(=O)C(=O)NNc2ccccn2)cc1,inactive,
Cc1cc(C)c2c(N)c(C(=O)c3ccc(Cl)c(Cl)c3)sc2n1,,"inconclusive: 3.98 µM [falling, partial curve, poor fit]"

# One compound at a time, as listed above.
# FC(F)(F)c1nc(SCc2ccc(Cl)cc2Cl)n[nH]1 in the list: activity change, negative = inhibition: inconclusive: 16.9%
# O=C(O)c1nc(-c2ccccc2)n(-c2cccc(C(F)(F)F)c2)n1 in the list: Potency: inconclusive: 0.794 µM [activator, full curve, poor fit]
# COc1ccc(-c2nc3scc(CCNS(=O)(=O)c4ccc(NC(C)=O)cc4)n3n2)cc1 in the list: Potency: inconclusive: 11.2 µM [falling, partial curve, poor fit]

# (cont.)

SMILES,"activity change, negative = inhibition",Potency
O=C(COC(=O)c1ccc(Br)o1)NCCc1ccccc1,inconclusive: 1.27%,
O=C1[C@@H]2Cc3c([nH]c4ccccc34)C(c3ccc([N+](=O)[O-])cc3)N2C(=O)CN1C1CC1 (stereo partly specified),inconclusive: -6.63%,
CN(C)N1C(N)=C(C#N)C(c2ccccc2F)C2=C1CC(C)(C)CC2=O (stereo unspecified),inconclusive: 5.63%,
Cc1ccc(N(CC(=O)Nc2ccccc2-c2ccccc2)S(=O)(=O)c2ccccc2)cc1,,"inconclusive: 35.5 µM [rising, partial curve, poor fit]"
CCCCCCn1c(O)c(/C=C2\C=NN=C2c2ccccc2)sc1=S,inactive,
O=C(Nc1ccc(S(=O)(=O)Nc2nccs2)cc1)c1cc(-c2ccccc2Cl)nc2ccccc12,inconclusive: -12.6%,
COc1ccc(NC(=O)c2ccc(CN3CCN(c4ccccc4)CC3)cc2)cc1OC,inconclusive: 2.95%,
Cc1ccc(NCC(=O)N/N=C\c2cccc(O)c2)cc1,inactive,
COC(=O)N1C(=O)[C@](c2ccccc2)(C2CCCC2)N1C(=O)OC,,"inconclusive: 5.01 µM [falling, partial curve]"
COc1ccc(/C=C/C(=O)Nc2ccccc2C(=O)O)cc1OC,inconclusive: 305%,"inconclusive: 4.11 µM [falling, partial curve]"
Cc1ccc(SCc2[nH]nc3c2C(C(C)C)C(C#N)=C(N)O3)cc1 (stereo unspecified),inconclusive: -11.4%,
COc1cc(-c2cc(C(=O)Nc3cc(S(=O)(=O)N4CCOCC4)ccc3O)c3ccccc3n2)cc(OC)c1OC,inconclusive: 0.617%,
Cc1nn(CC(C)C)c2sc(C(=O)NC3CC(C)(C)NC(C)(C)C3)cc12,inconclusive: -13.3%,
COc1cc(/C=C2\SC(N)=NC2=O)cc(OC)c1,,"inconclusive: 15.8 µM [falling, single point]"
COc1cccc(OC)c1C(=O)NNC(=O)c1cccc(COc2ccc3c(c2)CCC3)c1,inconclusive: 2.08%,
CC(C)c1ccccc1NC(=O)c1ccccc1NC(=O)C1CCCCC1,inconclusive: 9.36%,
O=C(CN1CCOCC1)Nc1ccc(Br)cn1,inconclusive: -10.6%,
COc1cc(-c2nc3ccc(C)cn3c2NCc2ccccc2)ccc1SC1CCCCC1,inactive,
COc1ccccc1NC(=O)CSC1=Nc2ccccc2C2=NC(CCC(=O)NCc3cccs3)C(=O)N12 (stereo unspecified),inactive,
O=S(=O)(c1ccc(=S)[nH]c1)N1CCCCC1,inactive,
CC(=O)c1c(C)[nH]c(C(=O)OCC(=O)Nc2nnc(-c3ccccc3)o2)c1C,inactive,
O=C(Nc1ccc(N2CCN(C(=O)c3ccco3)CC2)c(Cl)c1)c1c(F)c(F)c(F)c(F)c1F,,"inconclusive: 20.6 µM [falling, single point]"
CC(C)(C)c1ccc(/C=N/NC(=S)Nc2cccnc2)cc1,inactive,
CCCc1cc(-c2ccc(O)c(OCC)c2)c(C#N)c(N)n1,inconclusive: 7.18%,
COc1cccc(-c2nn3c(-c4cc(C)[nH]n4)nnc3s2)c1,inactive,
Cc1ccccc1C(=O)NC1CCN(CC(=O)Nc2nccs2)CC1,inconclusive: 0.463%,
Cc1cc(NS(=O)(=O)c2ccccc2)cc(Cl)c1O,,"inconclusive: 15.8 µM [falling, partial curve, poor fit]"

SMILES,"activity change, negative = inhibition",Potency
Cc1c(C(=O)NCc2ccco2)sc2nc(-c3ccccc3)cn12,inconclusive: 7.57%,
O=C1c2ccccc2C(=O)N1SC1CCCCC1,inconclusive: -0.989%,
COc1ccc(NS(=O)(=O)c2cc(NC(=O)c3nc4nc(C)cc(C)n4n3)ccc2C)cc1,inconclusive: -41.7%,
Cc1ccccc1CNC(=O)CN(c1cccc(C)c1C)S(C)(=O)=O,inconclusive: -2.97%,
CN1C(=O)c2cccc3c(S(=O)(=O)N4CCCC4C(=O)O)ccc1c23 (stereo unspecified),inactive,
COCc1cc(C)nc(OCC(=O)N/N=C/c2ccc(OC)c(O)c2)c1C#N,inconclusive: -0.234%,
COc1ccc(NC(=O)CNC(=O)Cn2c(C)cc3ccccc3c2=O)cc1OC,inactive,
Cc1cc(C)nc(SCCC(=O)N2CCOCC2)n1,inconclusive: 20.9%,
O=C(CN1CCN(c2ccccc2F)CC1)c1ccc(O)c(O)c1,inactive,
O=C(CSc1ccc(-c2ccccn2)nn1)c1ccc(F)cc1,inconclusive: -0.142%,
COCCOC(=O)C1=C(C)NC(=O)CC1c1cc2c(cc1Br)OCO2 (stereo unspecified),inconclusive: -1.57%,
C/C(=N\NC(=O)C1(C)CC1(Br)Br)c1cccc(NC(=O)C(C)(C)C)c1 (stereo unspecified),inconclusive: 1.08%,
COc1cccc2c(=S)c(CCC(C)=O)c(C)[nH]c12,inconclusive: -0.42%,
O=C(NC1CC1)C1CC(=O)N(c2cccc(Cl)c2)C1 (stereo unspecified),,"inconclusive: 5.01 µM [falling, partial curve]"
Cc1ccc2nc(-c3cccc(N)c3)oc2c1,inactive,
COC(=O)c1ccc(NC(=O)c2ccccc2NS(C)(=O)=O)cc1,inconclusive: -16.4%,
COc1ccc(N2CCN(C(=O)Cn3c(=O)[nH]c4ccccc4c3=O)CC2)cc1,inconclusive: -16.3%,
COc1ccccc1NC(=O)CCC(=O)N(Cc1ccc(OC)c(OC)c1)c1nccs1,,"inconclusive: 14.1 µM [falling, single point]"
O=C(COc1ccc(C(=O)c2ccccc2)cc1)NCC(=O)Nc1ccccc1Br,inconclusive: -2.94%,
CCN(C(=O)COC(=O)c1cc(Cl)ccc1OC)c1c(N)n(Cc2ccccc2)c(=O)[nH]c1=O,inconclusive: 3%,
O=C1c2ccccc2NC(c2cn[nH]c2-c2ccc(Cl)cc2)N1O (stereo unspecified),inconclusive: -7.19%,
COc1ccccc1NS(=O)(=O)c1cc(NC(=O)Cc2n[nH]c(=O)c3ccccc23)ccc1Cl,,"inconclusive: 23.1 µM [falling, single point]"
COc1ccccc1NC(=O)CSc1ccc(-c2cccs2)nn1,inactive,
CCOC(=O)CCSc1nnc(-c2cccnc2)n1-c1ccccc1OC,,"inconclusive: 14.6 µM [falling, partial curve]"
CCc1ccc(OCCn2cccn2)cc1,inconclusive: 15.2%,
c1ccc(CN2CCN(c3ncccn3)CC2)cc1,inactive,
